A short description of this test: qHTS Assay for Lipid Storage Modulators in Drosophila S3 Cells.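 On cell number change: cells counted by Cell Tracker Red CMTPX staining in the red channel.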 The following applies: BODIPY lipid droplet fluorescence, 18-24 h; for cell number change: measured here: cell count max response, cells fed with added oleic acid. A digest of the protocol:
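Drosophila S3 cells got compounds at several concentrations plus oleic acid (400 uM solution). Laser-scanning cytometry with 488 nm excitation read lipid droplets at 500-530 nm and cells at 575-640 nm. Percent activity was relative to 20 uM Triacsin C.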

[1] abbreviates: measured here: lipid fluorescence (Fed channel) AC50, cells fed with added oleic acid.
Setting [2] is: measured here: cell number channel AC50, cells fed with added oleic acid.

Our source for the cell number change and AC50 values is PubChem BioAssay AID2685 (National Center for Advancing Translational Sciences (NCATS), 2010).

A word on the AC50: it is the concentration giving half of the maximal activity seen. A higher AC50 goes with weaker potency.

The other results are listed elsewhere or left out. Further columns of the screen follow, without active or inactive calls. Compounds called inactive in the main read-out are mostly missing here. The note in brackets gives the kind of curve behind each potency; many fits are weak.

Consider `Cc1ccc(NC(=O)c2ccc3c(=O)n4c(nc3c2)CCC4)cc1F`, for which the cell number change was -13.8%. For the same compound, the AC50 under setting [1] was 0.0366 µM [falling, full curve, poor fit].
On to `Cc1ccc2c(C)c(C(=O)Nc3nnc(C)s3)oc2c1`, for which the cell number change was -3.84%. The AC50 under setting [1] was 0.164 µM [falling, full curve, poor fit].
Regarding `Cc1cc2cc(CCNS(=O)(=O)c3ccc(F)cc3)c(=O)[nH]c2cc1C`, the cell number change is 12.1%. Moreover, the AC50 under setting [1] was 16.4 µM [rising, single point].
In the case of `O=C1CN(C(=O)c2ccco2)C(c2ccccc2)c2cc(Cl)ccc2N1` (stereo not given), the cell number change worked out at 62.5%. The AC50 under setting [2] is 7.31 µM [rising, partial curve].
As to `Cc1cc(C)c(CNC(=O)c2cc(C3CC3)nc3c2cnn3C(C)C)c(=O)[nH]1`, the cell number change turned out to be 34.5%. The AC50 under setting [2] was 18.4 µM [rising, single point]. Further, the AC50 under setting [1] is 32.6 µM [rising, partial curve].
As for `Cc1ccccc1NCC(=O)c1ccc(Br)cc1`, the cell number change was determined as 3.24%.
Consider `C#CC(C)(C)NC(=O)CSc1nc2c(c(=O)n(C)c(=O)n2C)n1CCCC`, for which the cell number change amounted to 30.5%. For the same compound, under setting [2], the AC50 is 9.2 µM [rising, partial curve, poor fit]. Further, under setting [1], the AC50 was 11.6 µM [rising, partial curve, poor fit].
As for `O=C(O)CCCN1C(=O)C2C3c4ccccc4C(c4ccccc43)[C@@H]2C1=O` (stereo not given in full), the cell number change was -23.7%. Further, the AC50 under setting [1] is 29.1 µM [falling, single point].
Take `O=C(O)c1cc2c(cc1NC(=O)C1CCCC1)OCCO2`: the cell number change was -0.478%. Also, under setting [1], the AC50 was 0.82 µM [rising, partial curve].
As for `OC(c1cccnc1)c1cccs1` (stereo not given), the cell number change stood at 2.22%.
On the same count and under the same terms, for `COc1ccc(CCNC(=O)COC(=O)CSc2ccc([N+](=O)[O-])cc2)cc1OC` the value was 11.2%.
In the case of `O=C(Nc1cccnc1)C1CC(c2ccccc2O)=NO1` (stereo not given), the AC50 was 0.231 µM [falling, full curve, poor fit] under setting [2] and 1.3 µM [falling, full curve] under setting [1].
For the compound `COc1ccccc1NC(=S)N(Cc1ccc(Cl)cc1)CC1CCC(C(=O)O)CC1` (stereo not given), the AC50 under setting [1] was 0.206 µM [falling, partial curve, poor fit].
Regarding `CN(C)c1nc(-c2ccccc2)cc(C(F)(F)F)c1C#N`, the cell number change is -20.5%.
Regarding `CCC(CC)c1nn2c(N)c(/C=C3\C(C)=Nc4ccccc43)c(=O)nc2s1`, the cell number change is -6.2%. Under setting [1], the AC50 was 0.461 µM [rising, single point].
Take `C[C@H](NC(=O)c1ccco1)C(=O)Nc1ccc(C#N)cc1`: the cell number change was determined as 14.1%.
For the compound `Cc1cc(NS(=O)(=O)c2ccc(NC(=S)NC(=O)c3ccc(F)cc3)cc2)no1`, the cell number change turned out to be 5.63%. Further, the AC50 under setting [2] was 5.17 µM [falling, single point]. Besides, under setting [1], the AC50 is 6.51 µM [falling, single point].
On to `O=C(CSc1nnc(C2CC2)n1Cc1ccco1)NCC(F)(F)F`, for which the cell number change came to 7.17%.
As to `O=C(CN1CCCC1)Nc1ccc(Oc2ccc(NC(=O)CN3CCCC3)cc2)cc1`, under setting [1], the AC50 is 0.13 µM [falling, full curve, poor fit].
Take `Cc1nc2nc(C)c(CCC(=O)N3CCN(c4ccccn4)CC3)c(C)n2n1`: the cell number change was 24.5%. The AC50 under setting [1] was 9.2 µM [rising, partial curve].
As for `O=C(CNC(=O)c1ccccc1)N/N=C/c1ccc([N+](=O)[O-])s1`, the cell number change was -25.1%. Moreover, under setting [1], the AC50 is 29.1 µM [falling, single point].
For the compound `COCCNC(=O)CSc1nccn1Cc1ccc2c(c1)OCO2`, the cell number change is -17.2%. Besides, the concentration at half-maximal activity (AC50) under setting [2] was 0.0058 µM [falling, full curve, poor fit]. In addition, the AC50 under setting [1] is 18.4 µM [falling, single point].
For `COC(=O)Nc1ccc(S(=O)(=O)N2CCC(C)CC2)cc1`, the cell number change is 47%.
With `Cc1ccc(S(=O)(=O)N2CCC(=O)N(CCOCc3cccc(C)c3)CC2)cc1`, the cell number change came to 35.8%. In addition, the half-maximal activity concentration (AC50) under setting [2] is 10.3 µM [rising, single point]. For the same compound, the AC50 under setting [1] is 0.58 µM [rising, single point].
Take `CCN(c1ccccc1)S(=O)(=O)c1c(C)noc1C`: the cell number change turned out to be 6.43%.
For the compound `Cc1cccc(N=C2Sc3nc4c(C)c(C)ccc4cc3CN2CCN2CCOCC2)c1`, the cell number change was -26.3%. Besides, the AC50 under setting [1] is 6.51 µM [falling, single point].
Regarding `Cc1cc(C)c(-c2csc(NC(=O)C3=NN(c4ccccc4)C(=O)CC3)n2)c(C)c1`, the cell number change was -27.8%. The AC50 under setting [1] was 16.4 µM [falling, partial curve].
For the compound `CCc1ccccc1NC(=O)/C(C#N)=C\c1ccc(Sc2ccccc2)o1`, the cell number change is -17.9%. Under setting [1], the AC50 was 32.6 µM [falling, single point].
For `Cc1n[nH]c(C)c1CCCCOc1ccccc1`, the cell number change is 39.9%. Besides, the AC50 under setting [2] was 20.6 µM [rising, single point].
For `CCN1CCc2nc(SCC(=O)Nc3ccc(OC)cc3)c(C#N)cc2C1`, the cell number change is 8.6%. In addition, the AC50 under setting [1] is 6.51 µM [rising, partial curve].
As for `CCOc1ccc(S(=O)(=O)N2CCOCC2)cc1NC(=O)CSCC(=O)Nc1ccc(C)cc1`, the cell number change is 34.7%. In addition, under setting [2], the AC50 is 14.6 µM [rising, partial curve, poor fit].
For the compound `CCn1ccnc1CN(C)Cc1cn(-c2cc(C)ccc2C)nc1-c1ccccc1`, the cell number change was -22.9%.
The same measure, in the same setting: under `COc1ccc(C)cc1S(=O)(=O)N1CCCC(C(=O)N2CCN(c3ccccc3F)CC2)C1` (stereo not given) stands -33.8%.
Turning to `O=C(NNS(=O)(=O)c1ccc(F)cc1)c1cccc(O)c1`, the cell number change is -1.06%. Moreover, the AC50 under setting [1] is 0.231 µM [rising, full curve].
Consider `CCN(CC)S(=O)(=O)c1ccc(OC(C)C)c(N)c1`, for which the AC50 under setting [2] is 0.731 µM [falling, single point].
As for `CC(C)(C)NC(=O)CCSc1nnc(-c2ccco2)o1`, the cell number change came to 23.5%. Moreover, the AC50 under setting [1] is 29.1 µM [rising, single point].
`C=C(C)CNC(=S)N/N=C(\C)c1ccc(-n2ccnc2)cc1`: the cell number change was determined as 61.8%. Besides, the AC50 under setting [2] is 0.116 µM [rising, full curve, poor fit]. In addition, under setting [1], the concentration at half-maximal activity (AC50) is 0.291 µM [rising, full curve].
Take `OCCSc1nc(-c2ccccc2)nc2c1CCC2`: the cell number change came to 25.4%. Further, under setting [1], the AC50 was 20.6 µM [rising, single point].
On to `Cc1occc1-c1nnc(SCC(=O)c2ccc(Cl)cc2)n1C`, for which the cell number change was -18.2%. In addition, the AC50 under setting [1] was 29.1 µM [falling, single point].
With `Cc1ccc(CNC(=O)C2CCCN(S(=O)(=O)c3c(C)n[nH]c3C)C2)cc1` (stereo not given), the cell number change was 76.5%. For the same compound, under setting [2], the half-maximal activity concentration (AC50) was 16.4 µM [rising, partial curve].
Consider `CN1CCN(c2cc(N3CCN(C(=O)c4ccco4)CC3)c3c4c(onc24)-c2ccccc2C3=O)CC1`, for which the cell number change was determined as 39.2%. In addition, the AC50 under setting [2] is 4.11 µM [falling, single point].
